Experimental data published in PubChem BioAssay AID662 (National Center for Advancing Translational Sciences (NCATS), 2007).
The list shows a part of the results. Further columns of the screen follow, without active or inactive calls. Most of these compounds were active or inconclusive in the main read-out, so they are no random draw. Words in brackets tell the shape of the fitted curve; partial curves, single points and poor fits give uncertain potencies.

Assay: Cell signaling CRE-BLA (Fsk stim)
Details: CHO CRE-bla reporter (cAMP response element driving beta-lactamase), forskolin EC10, beta-lactamase ratio; measured here: 460 nm blue channel
Procedure, shortened: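 CHO CRE-bla cells, overnight plating in Opti-MEM with 0.5% dialyzed FBS; cpd titration + EC10 NKH 477, 3 h 37 °C; CCF4 2 h RT; ex 405/em 460 vs 530 ratio → %Activity, AC50.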

Structure (SMILES)	AC50
COc1ccc(OC)c(NC(=O)CSc2nnc(CCCO)n2-c2ccccc2)c1	12.6 µM [rising, single point]
CCOC(=O)CSc1nc2sc(C)c(C)c2c(=O)n1C	12.6 µM [rising, single point]
CC(C)Cn1c(SCC(=O)NC2CCCc3ccccc32)nc(O)cc1=O (stereo not drawn)	2 µM [falling, partial curve]
CCOC(=O)c1c(NC(=O)c2cccs2)sc(C)c1C	6.31 µM [rising, partial curve]
CCOC(=O)c1ccccc1NC(=O)CSc1nnc(Cc2cccn2C)n1-c1ccc(C)cc1	10 µM [falling, single point]
Cc1noc(C)c1COC(=O)c1cc(=O)[nH]c2ccccc12	12.6 µM [rising, single point]
COc1ccc(N(CC(=O)NCc2ccccc2)S(=O)(=O)c2c(C)noc2C)cc1	5.01 µM [rising, single point]
COc1ccc(-c2nc(C#N)c(NCc3ccc(F)cc3)o2)cc1OC	2.51 µM [rising, full curve]
CCOc1ccc(-c2cc3nc(C4CCN(C(=O)OC(C)(C)C)CC4)c(C(=O)O)cn3n2)cc1	12.6 µM [rising, partial curve]
Cc1ccc(S(=O)(=O)N2CCN(C(=O)CSc3nc4ccccc4c(=O)[nH]3)CC2)c(C)c1	25.1 µM [rising, single point]
CN(C)S(=O)(=O)c1cccc(-c2cn3ccccc3n2)c1	10 µM [rising, partial curve]
N#CC1=C2SCC(O)(c3ccccc3)N2C(=O)CC1c1cccs1 (stereo not drawn)	12.6 µM [rising, partial curve, poor fit]
Cc1cc(Nc2ccccc2F)n2ncnc2n1	10 µM [rising, single point]
COc1ccccc1NC(=O)c1c(NC(=O)c2ccco2)sc2c1CCC2	2.51 µM [rising, full curve]
C=CCNc1nc2c(c(=O)[nH]c(=O)n2C)n1CCCCC	10 µM [rising, partial curve]
CCc1cccc(C)c1NC(=O)C1C2CCC(O2)C1C(=O)O (stereo not drawn)	0.1 µM [falling, full curve, poor fit]
CN1CCN(C(=O)c2cccc(COc3cc(Cl)ccc3Cl)c2)CC1	12.6 µM [rising, partial curve]
CCOc1ccc(N2C(=O)CC(Sc3nc(C)cc(C)n3)C2=O)cc1 (stereo not drawn)	1 µM [rising, partial curve, poor fit]
CN(Cc1ccco1)c1cc(-c2ccccc2Cl)ncn1	12.6 µM [rising, partial curve]
Cc1nnc(C)n1/N=C/c1ccc2c(c1)OCCO2	3.98 µM [falling, single point]
Cn1c(=O)c2c(nc(CN3CCN(Cc4ccccc4)CC3)n2Cc2ccc(F)cc2)n(C)c1=O	6.31 µM [rising, partial curve]
O=C(CCC(=O)N1CCc2ccccc21)N1CCc2ccccc21	0.01 µM [falling, partial curve, poor fit]

Three neighbouring entries already listed:
Structure (SMILES)	AC50
CCc1cccc(C)c1NC(=O)C1C2CCC(O2)C1C(=O)O (stereo not drawn)	0.1 µM [falling, full curve, poor fit]
CN1CCN(C(=O)c2cccc(COc3cc(Cl)ccc3Cl)c2)CC1	12.6 µM [rising, partial curve]
CCOc1ccc(N2C(=O)CC(Sc3nc(C)cc(C)n3)C2=O)cc1 (stereo not drawn)	1 µM [rising, partial curve, poor fit]

The list continues.

Structure (SMILES)	AC50
CC1CCCCN1C(=O)Cn1c(=O)n(C2CCCCC2)c(=O)c2ccccc21 (stereo not drawn)	25.1 µM [rising, single point]
CC(=O)c1nnn(-c2nc(N)nc(N(c3ccccc3)c3ccccc3)n2)c1C	15.8 µM [rising, single point]
Cc1cc(Nc2ccc(C)c(C)c2)n2nc(C)nc2n1	5.01 µM [rising, partial curve]
CCOC(=O)Cn1c(=NC(=O)CSC(C)=O)sc2ccccc21	15.8 µM [falling, single point]
COc1ncc2nc(-c3ccc(Cl)cc3)c(=O)n(Cc3cccs3)c2n1	12.6 µM [rising, partial curve]
CCCN(CCC)C1CC(=O)N(Cc2ccccc2)C1=O (stereo not drawn)	0.126 µM [falling, full curve, poor fit]
Cc1ccc(Cn2ncc3c(N4CCCC4)ncnc32)cc1	7.94 µM [rising, partial curve]
CCOC(=O)N1CCN(C(=O)c2ccc3c(=O)n(Cc4ccc(OC)cc4)c(=S)[nH]c3c2)CC1	0.501 µM [falling, partial curve]
COc1ccc(OC)c(-c2cc(C(=O)Nc3c(C)nn(Cc4ccc(Cl)cc4)c3C)no2)c1	2.51 µM [rising, full curve]
O=C1CCCC2=C1C(c1cccc(Br)c1)n1nc(-c3ccco3)nc1N2 (stereo not drawn)	10 µM [rising, single point]
Cc1nc(NC(=O)c2ccccc2)sc1-c1csc(NCc2ccco2)n1	2 µM [falling, partial curve]
Cn1c2ccc(Cl)cc2c2nc3ccccc3nc21	5.01 µM [rising, partial curve]
C=CCn1cc(C(=O)NCCCOCC)c(=O)c2cc(S(=O)(=O)N(CC)CC)ccc21	20 µM [rising, single point]
COCCn1c(=O)c(-c2cccc(Cl)c2)nc2cncnc21	25.1 µM [rising, single point]
Cc1ccc(CNC(=O)c2cc3c(=O)n4cccc(C)c4nc3n(CC3CCCO3)c2=N)cc1 (stereo not drawn)	20 µM [rising, single point]
COc1ccc(-c2nc(CSCC(=O)N3CCN(c4cccc(C)c4)C(C)C3)c(C)o2)cc1OC (stereo not drawn)	2.51 µM [rising, partial curve]
COc1cc(C(=O)Nc2ccc(N(C)C)cc2)cc(OC)c1OC	15.8 µM [rising, partial curve]
CCn1c(COc2cccc(OC)c2)nnc1SCC(=O)Nc1cccc(OC)c1	0.00316 µM [falling, full curve, poor fit]
CCN(CC)CCCNc1cc2n(c(=O)n1)CCc1cc(OC)c(OC)cc1-2	12.6 µM [rising, partial curve]
COc1cc(C(=O)Nc2ccc(-n3cnnn3)c(C)c2)cc(OC)c1OC	12.6 µM [rising, partial curve]
O=C(NC1CCCCC1)c1sc(=S)n2c1[nH]c(=O)c1ccccc12	0.126 µM [falling, full curve, poor fit]
